Source: patent publication US10864251B2 (Wisconsin Alumni Research Foundation, priority 2006, dated 2020)
Where no end group is shown, it is not given here.

Assay: peptide made by a vendor
Details: whole synthesis

Sequence: SNTETAFTSVLPAGEKPEEGEPVLHVEAEPGFTARDKEKEVTTRPRETV
- final purity (method not given): 75%
